# Results of single-concentration screens

Each number is a percent effect as filed. How 0% and 100% were set is not recorded. Most values in the screen are low, and negative values occur. This is an unselected part of the compounds tested.

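Phenotypic screen: M. tuberculosis growth, glucose 7H9 medium, 3 days; the read-out is not stated. Compounds at 500 µM. The record gives no direction; compounds that gave an IC50 in retests scored well above the rest, so higher reads as more growth inhibition. Of about 18,000 compounds tested this way, about 1,400 (7.9%) reached 50% or more in at least one test.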

COCCNS(=O)(=O)c1cn[nH]c1C read 25.4%.
COCCC1(C(=O)NCc2cc(Cl)ccn2)CC1 read 19.54%.
CN(C)C(=O)CN1CCCC(CO)(CC2CC2)C1 (stereo unspecified) read 7.951%.
CN(Cc1ccco1)CC(O)COCc1cccs1 (stereo unspecified) read 68.65%.
NS(=O)(=O)c1ccc(NC(=O)c2ccccc2O)cc1 read 36.47%.
CCCN1CC(C(=O)NCc2cccnc2)CC1=O (stereo unspecified) read -13.13%.
C1COCCN(C2CCNCC2)C1 read -0.6225%.
CSCCCNC(=O)Nc1ncnn1C read 5.965%.
CC(C)CN1CCC(N)CC1 read 2.059%.
CCCSCC(=O)NCc1cc(O)nc(C)n1 read 5.538%.
CCOc1cccc2c1OCC(C(=O)N(C)C)C2 (stereo unspecified) read 21.18%.
CC(C)C(CN)N1CCCC1 (stereo unspecified) read -11.85%.
COCC(=O)NCc1ccccc1CN1CCCC1=O read -8.054%.
CC(C)C(=O)Nc1ccc(N2CCOCC2)nc1 read -5.262%.
Cc1cc(C)c2c(N[C@@H]3CC[C@@H](N)C3)ncnc2n1 read 5.678%.
CCOc1ncccc1OCCO read -14.1%.
O=C(c1cc(F)ccc1F)N1CCNCC1 read 2.007%.
NCCCn1cccnc1=O read -23.23%.
CCSc1nnc(CN)n1C read -4.132%.
COCCNC(=O)C1CC(c2ccc(Cl)c(Cl)c2)=NO1 (stereo unspecified) read 1.105%.
COc1cccc(CNC(=O)N2CCCC(CO)C2)c1 (stereo unspecified) read 33.59%.
CN1CN(Cc2ccc(Cl)o2)CC1=O read 84.07%.
NC(=O)C1CCN(CCCOc2ccccc2)CC1 read 7.649%.
N#CCCNC(=O)CN1CCC2(CC1)OCCO2 read 2.662%.
OC1CCN(Cc2cc(Cl)c3c(c2)OCCO3)CC1 read 52.05%.
CCOCc1nnc(NCc2nc(C)cs2)o1 read -4.023%.
Cc1cc(=O)cc(C(=O)N2CCCC(C)(C#N)C2)o1 (stereo unspecified) read 11.73%.
CCSc1cc(CN)ccn1 read 11.47%.
CCn1cnnc1CC1CCCNC1 (stereo unspecified) read -17.34%.
CN(CCCNC(=O)C1CCC(=O)N1)c1ccccc1 (stereo unspecified) read 13.56%.
CNCc1n[nH]c2c1CCCC2 read -0.6793%.
O=C(Nc1n[nH]c(C2CCC2)n1)c1cc(F)ccc1F read -2.146%.
CCC(NC(=O)CNC(C)=O)c1ncnn1CC (stereo unspecified) read -10.74%.
COCc1ccccc1CNC(=O)Nc1ncnn1C read 9.52%.
Cc1cc(N)nn1-c1cccc(F)c1 read 22.93%.
CC(N)c1cccc(N2CCCC2)c1 (stereo unspecified) read 1.291%.
CNC(=O)CCN1CCOC(c2ccc(F)c(C)c2)C1 (stereo unspecified) read -1.299%.
CC(=O)NCc1ccc(-c2nc(C3CC3)no2)s1 read 48.58%.
NCC1CCCCN1C(=O)CN1CCc2sccc2C1 (stereo unspecified) read 7.446%.
O=C1CN(C(=O)c2ccccn2)c2ccncc2N1 read 4.821%.
COCC1(CN)CC1 read -6.588%.
COc1cccn(CC(=O)N2CCCCC2CN)c1=O (stereo unspecified) read -14.48%.
NCCc1cnn(-c2ccccc2)c1 read 70.22%.
O=C(NCCN1CCOCC1)c1cc(C2CC2)[nH]n1 read 13.61%.
O=C(CC(O)c1cccc(F)c1)N1CCC[C@H]1CO (stereo partly specified) read 5.062%.
CC(=O)NCc1ccc(-c2csc(C3CCCO3)n2)o1 (stereo unspecified) read 30.4%.
CCOc1ccccc1CSc1nnc(O)[nH]1 read 20.29%.
NCC(O)c1ccc(F)cc1F (stereo unspecified) read 41.17%.

Repeated from the top, 6 entries:

{"structure": "COCCNS(=O)(=O)c1cn[nH]c1C", "Percent Effect": 25.4}
{"structure": "COCCC1(C(=O)NCc2cc(Cl)ccn2)CC1", "Percent Effect": 19.54}
{"structure": "CN(C)C(=O)CN1CCCC(CO)(CC2CC2)C1", "stereo": "stereo unspecified", "Percent Effect": 7.951}
{"structure": "CN(Cc1ccco1)CC(O)COCc1cccs1", "stereo": "stereo unspecified", "Percent Effect": 68.65}
{"structure": "NS(=O)(=O)c1ccc(NC(=O)c2ccccc2O)cc1", "Percent Effect": 36.47}
{"structure": "CCCN1CC(C(=O)NCc2cccnc2)CC1=O", "stereo": "stereo unspecified", "Percent Effect": -13.13}

The values are deposited in ChEMBL (CHEMBL3988442, “University of Dundee, Small-Polar-MMV Screening Library” (2021)).